Most of the targets with a hit are listed elsewhere, so they are rarer here than in the full data. The data scatter; read single values as rough. Only a part is listed here, and it is no random draw.
What follows are targets tested with COC(=O)/C=C/c1ccccc1 [methyl cinnamate] (assay: log2 ratio of iodoacetamide-alkyne labeling of the cysteine site, DMSO over compound (competition); higher = stronger covalent engagement of the cysteine by the compound, active = 1 or more). Details: 500 µM; treatment time 1 h; system: HEK293T cell lysate.
In short: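 HEK293T lysate (2 mg/mL) was treated with DMSO or electrophile (500 µM, 1 h, ambient temperature), then iodoacetamide alkyne (1 h), clicked to sCIP-TMT reagents, pooled, trypsin-digested overnight at 37 °C, streptavidin-enriched and acid-eluted. Peptides were run on Orbitrap Eclipse LC-MS/MS with FAIMS and quantified in FragPipe. The log2 competition ratio per cysteine is mean control-channel over mean compound-channel reporter intensity. Duplicate channels and three replicates were used, and cysteines quantified in only one replicate were excluded.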

By UniProt entry, the sequences of proteins in these tests, tags left out. Where a name states a change or a piece, a line headed by the entry shows the natural chain unless it says otherwise.
UniProt Q9NWX6: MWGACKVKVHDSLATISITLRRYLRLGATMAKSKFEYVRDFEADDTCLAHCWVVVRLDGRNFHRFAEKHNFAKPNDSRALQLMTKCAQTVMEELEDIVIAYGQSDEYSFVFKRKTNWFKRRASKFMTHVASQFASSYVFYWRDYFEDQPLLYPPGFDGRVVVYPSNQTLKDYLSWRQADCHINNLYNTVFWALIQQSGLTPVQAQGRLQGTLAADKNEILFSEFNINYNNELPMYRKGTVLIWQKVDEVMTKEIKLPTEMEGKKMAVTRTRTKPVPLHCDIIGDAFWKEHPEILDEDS
UniProt Q9UGP4: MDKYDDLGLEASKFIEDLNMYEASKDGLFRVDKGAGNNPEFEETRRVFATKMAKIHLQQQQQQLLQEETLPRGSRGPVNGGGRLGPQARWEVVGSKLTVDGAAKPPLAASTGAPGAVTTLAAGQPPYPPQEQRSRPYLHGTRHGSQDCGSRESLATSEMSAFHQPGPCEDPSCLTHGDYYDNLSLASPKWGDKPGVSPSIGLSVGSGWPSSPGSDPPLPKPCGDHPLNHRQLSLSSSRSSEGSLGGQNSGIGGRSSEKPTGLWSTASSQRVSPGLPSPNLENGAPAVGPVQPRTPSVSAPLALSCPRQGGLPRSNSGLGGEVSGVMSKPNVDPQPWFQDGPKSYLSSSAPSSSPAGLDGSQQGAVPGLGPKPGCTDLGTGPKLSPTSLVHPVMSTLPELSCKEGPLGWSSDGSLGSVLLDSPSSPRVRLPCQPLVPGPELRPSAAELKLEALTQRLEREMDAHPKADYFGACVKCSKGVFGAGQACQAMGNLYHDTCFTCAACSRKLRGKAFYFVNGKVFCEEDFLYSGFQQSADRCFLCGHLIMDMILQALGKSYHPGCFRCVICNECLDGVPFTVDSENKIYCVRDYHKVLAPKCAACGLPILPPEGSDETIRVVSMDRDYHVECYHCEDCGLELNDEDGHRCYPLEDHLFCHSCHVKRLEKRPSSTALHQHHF
UniProt Q9P2E9: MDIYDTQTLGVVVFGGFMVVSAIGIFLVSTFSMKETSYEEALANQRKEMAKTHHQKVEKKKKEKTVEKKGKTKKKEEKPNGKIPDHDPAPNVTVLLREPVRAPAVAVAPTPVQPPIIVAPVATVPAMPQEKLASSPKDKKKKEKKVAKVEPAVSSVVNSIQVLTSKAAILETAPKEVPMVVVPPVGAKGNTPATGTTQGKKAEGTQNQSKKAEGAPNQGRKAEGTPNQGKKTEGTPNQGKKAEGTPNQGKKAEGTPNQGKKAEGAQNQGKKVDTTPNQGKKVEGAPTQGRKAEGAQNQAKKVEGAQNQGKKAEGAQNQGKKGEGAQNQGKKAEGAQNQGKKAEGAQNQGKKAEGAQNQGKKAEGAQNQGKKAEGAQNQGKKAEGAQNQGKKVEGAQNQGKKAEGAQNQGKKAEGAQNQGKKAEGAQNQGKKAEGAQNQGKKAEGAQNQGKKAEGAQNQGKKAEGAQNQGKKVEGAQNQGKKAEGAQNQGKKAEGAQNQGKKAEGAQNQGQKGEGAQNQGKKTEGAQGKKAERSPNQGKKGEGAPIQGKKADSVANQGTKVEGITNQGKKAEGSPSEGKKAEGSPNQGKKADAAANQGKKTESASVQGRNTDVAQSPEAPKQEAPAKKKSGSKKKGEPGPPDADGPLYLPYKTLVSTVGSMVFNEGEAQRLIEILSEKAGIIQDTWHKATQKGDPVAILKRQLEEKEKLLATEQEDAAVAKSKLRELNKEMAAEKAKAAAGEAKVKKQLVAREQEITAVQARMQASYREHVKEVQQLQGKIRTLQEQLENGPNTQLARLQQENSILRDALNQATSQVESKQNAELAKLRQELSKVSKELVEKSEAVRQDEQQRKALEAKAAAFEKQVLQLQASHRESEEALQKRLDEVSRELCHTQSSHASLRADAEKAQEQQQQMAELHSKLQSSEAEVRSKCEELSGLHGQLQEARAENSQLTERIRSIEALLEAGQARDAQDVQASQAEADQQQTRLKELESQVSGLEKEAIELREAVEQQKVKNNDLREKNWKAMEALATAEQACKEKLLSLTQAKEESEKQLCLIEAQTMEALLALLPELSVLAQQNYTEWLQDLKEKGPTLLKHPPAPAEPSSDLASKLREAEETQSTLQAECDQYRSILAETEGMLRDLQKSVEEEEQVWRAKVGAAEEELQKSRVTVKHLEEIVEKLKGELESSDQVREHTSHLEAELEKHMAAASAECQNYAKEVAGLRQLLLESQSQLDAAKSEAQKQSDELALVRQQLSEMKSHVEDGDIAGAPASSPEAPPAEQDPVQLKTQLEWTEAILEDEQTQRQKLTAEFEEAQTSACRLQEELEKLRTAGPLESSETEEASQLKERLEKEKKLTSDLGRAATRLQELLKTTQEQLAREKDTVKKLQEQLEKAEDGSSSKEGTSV
UniProt Q9UET6: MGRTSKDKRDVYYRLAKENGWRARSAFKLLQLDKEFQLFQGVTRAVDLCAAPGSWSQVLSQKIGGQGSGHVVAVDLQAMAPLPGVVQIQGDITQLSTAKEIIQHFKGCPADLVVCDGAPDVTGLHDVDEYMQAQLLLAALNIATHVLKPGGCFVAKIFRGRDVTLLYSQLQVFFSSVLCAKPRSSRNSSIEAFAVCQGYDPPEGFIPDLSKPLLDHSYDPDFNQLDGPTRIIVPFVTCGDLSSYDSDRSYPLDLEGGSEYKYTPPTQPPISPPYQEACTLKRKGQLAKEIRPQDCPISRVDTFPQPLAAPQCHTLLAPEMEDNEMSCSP
UniProt Q9UBB4: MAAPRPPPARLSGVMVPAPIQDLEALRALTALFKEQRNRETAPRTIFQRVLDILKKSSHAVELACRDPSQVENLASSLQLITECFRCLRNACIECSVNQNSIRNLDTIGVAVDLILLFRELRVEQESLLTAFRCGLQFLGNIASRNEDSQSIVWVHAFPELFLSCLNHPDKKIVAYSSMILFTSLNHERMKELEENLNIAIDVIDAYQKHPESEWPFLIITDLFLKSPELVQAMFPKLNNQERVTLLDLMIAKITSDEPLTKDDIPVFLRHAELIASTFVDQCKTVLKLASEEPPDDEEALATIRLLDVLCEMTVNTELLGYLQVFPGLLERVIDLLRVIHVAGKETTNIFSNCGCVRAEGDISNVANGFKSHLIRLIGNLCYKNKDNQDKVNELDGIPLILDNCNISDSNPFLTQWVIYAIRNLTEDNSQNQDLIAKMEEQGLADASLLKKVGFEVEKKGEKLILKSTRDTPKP
UniProt Q9NZ09: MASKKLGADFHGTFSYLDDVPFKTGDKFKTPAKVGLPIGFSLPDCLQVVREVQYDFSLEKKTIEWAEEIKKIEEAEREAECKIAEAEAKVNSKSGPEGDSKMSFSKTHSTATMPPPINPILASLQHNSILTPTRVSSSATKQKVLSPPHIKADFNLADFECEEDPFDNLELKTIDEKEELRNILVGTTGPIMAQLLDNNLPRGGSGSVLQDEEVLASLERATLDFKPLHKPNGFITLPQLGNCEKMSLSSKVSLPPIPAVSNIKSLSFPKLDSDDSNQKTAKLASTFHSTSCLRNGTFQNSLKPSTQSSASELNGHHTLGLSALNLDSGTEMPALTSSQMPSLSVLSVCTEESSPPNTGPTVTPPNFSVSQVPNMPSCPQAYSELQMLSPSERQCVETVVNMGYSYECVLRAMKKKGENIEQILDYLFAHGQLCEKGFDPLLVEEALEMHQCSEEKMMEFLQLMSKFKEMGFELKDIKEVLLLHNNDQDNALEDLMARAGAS
UniProt Q9NW64: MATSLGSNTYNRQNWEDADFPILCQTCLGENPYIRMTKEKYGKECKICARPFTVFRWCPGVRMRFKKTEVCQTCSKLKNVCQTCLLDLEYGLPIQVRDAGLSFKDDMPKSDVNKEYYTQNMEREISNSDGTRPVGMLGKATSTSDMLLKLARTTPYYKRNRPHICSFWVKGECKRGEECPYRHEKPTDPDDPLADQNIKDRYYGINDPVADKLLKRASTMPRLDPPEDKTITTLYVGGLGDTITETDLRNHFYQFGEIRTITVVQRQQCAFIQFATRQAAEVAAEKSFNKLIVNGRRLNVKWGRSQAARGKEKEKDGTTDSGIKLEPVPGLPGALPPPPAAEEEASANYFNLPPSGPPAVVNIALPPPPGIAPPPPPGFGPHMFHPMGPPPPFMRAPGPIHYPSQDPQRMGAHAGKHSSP
UniProt Q9UGP8: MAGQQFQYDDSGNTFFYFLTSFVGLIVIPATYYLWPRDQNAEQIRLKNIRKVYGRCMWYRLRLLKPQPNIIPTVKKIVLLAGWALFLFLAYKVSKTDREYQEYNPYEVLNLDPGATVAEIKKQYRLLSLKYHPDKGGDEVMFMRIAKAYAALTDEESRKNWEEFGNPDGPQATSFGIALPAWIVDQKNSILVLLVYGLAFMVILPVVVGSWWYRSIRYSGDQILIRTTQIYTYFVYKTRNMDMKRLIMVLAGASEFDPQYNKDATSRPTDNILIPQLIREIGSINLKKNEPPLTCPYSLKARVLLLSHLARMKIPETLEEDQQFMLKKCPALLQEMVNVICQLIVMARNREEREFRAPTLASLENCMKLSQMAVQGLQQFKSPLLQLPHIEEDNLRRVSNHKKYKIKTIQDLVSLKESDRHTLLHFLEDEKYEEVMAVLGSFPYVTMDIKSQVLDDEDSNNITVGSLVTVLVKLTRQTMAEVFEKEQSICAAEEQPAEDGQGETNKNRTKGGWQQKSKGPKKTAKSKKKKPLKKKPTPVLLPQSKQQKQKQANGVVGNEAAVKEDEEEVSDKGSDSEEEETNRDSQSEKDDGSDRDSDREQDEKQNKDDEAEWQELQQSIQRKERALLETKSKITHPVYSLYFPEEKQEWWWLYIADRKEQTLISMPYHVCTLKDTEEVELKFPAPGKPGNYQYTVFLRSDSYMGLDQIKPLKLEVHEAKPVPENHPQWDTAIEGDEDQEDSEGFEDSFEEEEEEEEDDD
UniProt Q9NWY4: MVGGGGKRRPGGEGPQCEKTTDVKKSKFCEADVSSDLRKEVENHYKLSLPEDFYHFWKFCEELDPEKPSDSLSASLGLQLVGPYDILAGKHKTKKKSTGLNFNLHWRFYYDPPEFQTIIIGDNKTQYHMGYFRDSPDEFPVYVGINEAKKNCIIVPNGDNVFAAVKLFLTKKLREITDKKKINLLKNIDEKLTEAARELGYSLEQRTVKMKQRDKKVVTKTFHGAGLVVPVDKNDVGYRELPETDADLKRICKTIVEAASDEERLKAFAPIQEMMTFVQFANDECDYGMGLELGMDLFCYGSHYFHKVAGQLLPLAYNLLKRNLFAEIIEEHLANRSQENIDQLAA
UniProt Q9P253: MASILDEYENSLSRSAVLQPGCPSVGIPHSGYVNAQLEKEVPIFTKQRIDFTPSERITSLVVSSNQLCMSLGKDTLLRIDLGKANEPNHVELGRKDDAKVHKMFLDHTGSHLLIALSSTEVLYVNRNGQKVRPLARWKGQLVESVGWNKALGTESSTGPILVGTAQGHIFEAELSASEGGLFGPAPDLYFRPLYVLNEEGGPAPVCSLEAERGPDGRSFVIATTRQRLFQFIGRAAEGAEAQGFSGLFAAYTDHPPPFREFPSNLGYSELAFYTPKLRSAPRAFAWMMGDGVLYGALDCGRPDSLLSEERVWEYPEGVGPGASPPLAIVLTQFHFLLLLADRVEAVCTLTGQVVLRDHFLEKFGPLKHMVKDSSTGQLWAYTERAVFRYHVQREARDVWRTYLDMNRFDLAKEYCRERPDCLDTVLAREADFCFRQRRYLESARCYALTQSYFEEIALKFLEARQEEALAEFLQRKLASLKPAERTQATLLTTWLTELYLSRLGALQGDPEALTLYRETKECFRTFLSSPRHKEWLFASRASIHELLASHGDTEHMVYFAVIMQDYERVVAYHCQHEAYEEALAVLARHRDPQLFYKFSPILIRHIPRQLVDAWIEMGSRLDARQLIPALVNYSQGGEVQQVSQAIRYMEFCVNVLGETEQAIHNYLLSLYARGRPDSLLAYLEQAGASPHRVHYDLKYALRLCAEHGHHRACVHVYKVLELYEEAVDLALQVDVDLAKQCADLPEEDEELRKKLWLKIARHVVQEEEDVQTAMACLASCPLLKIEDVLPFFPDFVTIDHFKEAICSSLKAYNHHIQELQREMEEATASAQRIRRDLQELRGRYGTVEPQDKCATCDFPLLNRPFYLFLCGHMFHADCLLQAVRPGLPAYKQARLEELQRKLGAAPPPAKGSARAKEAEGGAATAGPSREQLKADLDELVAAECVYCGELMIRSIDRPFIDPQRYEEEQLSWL
UniProt Q9NWR8: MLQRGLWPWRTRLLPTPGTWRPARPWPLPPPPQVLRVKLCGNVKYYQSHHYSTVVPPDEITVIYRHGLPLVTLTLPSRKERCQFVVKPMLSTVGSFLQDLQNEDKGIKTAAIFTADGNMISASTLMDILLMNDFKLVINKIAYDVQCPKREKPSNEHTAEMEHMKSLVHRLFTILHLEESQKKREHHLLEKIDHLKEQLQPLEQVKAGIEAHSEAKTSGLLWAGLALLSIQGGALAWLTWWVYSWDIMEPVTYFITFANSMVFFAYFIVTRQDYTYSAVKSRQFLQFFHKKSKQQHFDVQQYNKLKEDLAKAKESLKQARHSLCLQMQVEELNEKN

log2 ratio of iodoacetamide-alkyne labeling, inactive:
THG1L C279 (UniProt Q9NWX6) -0.253, SRP68 C562 (UniProt Q9UHB9) -0.0333, MRPS18A C73 (UniProt Q9NVS2) 0.213, UniProt Q9UBF8_C89 0.415, LIMD1 C222 (UniProt Q9UGP4) 0.178, MAT2B C58 (UniProt Q9NZL9) 0.0738, RBM28 C71 (UniProt Q9NW13) 0.0459, RRBP1 C933 (UniProt Q9P2E9) 0.142, SDAD1 C87 (UniProt Q9NVU7) 0.307, COPG2 C446 (UniProt Q9UBF2) 0.0844, LIMD1 C374 (UniProt Q9UGP4) 0.354, ARHGEF12 C921 (UniProt Q9NZN5) 0.157, UniProt Q9UBD5_C158 0.679, FTSJ1 C49 (UniProt Q9UET6) 0.294, ATXN10 C134 (UniProt Q9UBB4) 0.0976, ATXN10 C283 (UniProt Q9UBB4) 0.127, STK39 C450 (UniProt Q9UEW8) -0.0648, LIMD1 C401 (UniProt Q9UGP4) 0.038, UniProt Q9NWV8_C222 0.249, COPG2 C296 (UniProt Q9UBF2) -0.204, UTP6 C309 (UniProt Q9NYH9) 0.0434, UBAP1 C161 (UniProt Q9NZ09) 0.327, MRPL16 C167 (UniProt Q9NX20) -0.219, POLR3E C70 (UniProt Q9NVU0) 0.168, COPS7A C110 (UniProt Q9UBW8) -0.198, TES C364 (UniProt Q9UGI8) 0.0488, UniProt Q9NW64_C84 -0.297, RNF7 C11 (UniProt Q9UBF6) 0.28, AASS C87 (UniProt Q9UDR5) -0.0836, SEC63 C295 (UniProt Q9UGP8) 0.267, ABCF3 C4 (UniProt Q9NUQ8) 0.176, UniProt Q9NWY4_C17 0.339, VPS18 C22 (UniProt Q9P253) -0.0364, MTCH1 C385 (UniProt Q9NZJ7) 0.0148, FAM105A C177 (UniProt Q9NUU6) 0.163, UniProt Q9NWR8_C324 0.0898, FANCI C875 (UniProt Q9NVI1) 0.141

— the supplement of paper PMC11006884
